Data: PMC8196014
Results are given in words; binding and its absence hold for the method and conditions named. In cells and extracts the contact can be indirect. Some results given as binding are weak or reduced against the parent protein; the word gives no strength. For some assays here: Tags and fused reporters may be left off the sequences shown.

Protein sequences, listed by entry. Tags and fused reporters are not part of them.
UniProt P46937: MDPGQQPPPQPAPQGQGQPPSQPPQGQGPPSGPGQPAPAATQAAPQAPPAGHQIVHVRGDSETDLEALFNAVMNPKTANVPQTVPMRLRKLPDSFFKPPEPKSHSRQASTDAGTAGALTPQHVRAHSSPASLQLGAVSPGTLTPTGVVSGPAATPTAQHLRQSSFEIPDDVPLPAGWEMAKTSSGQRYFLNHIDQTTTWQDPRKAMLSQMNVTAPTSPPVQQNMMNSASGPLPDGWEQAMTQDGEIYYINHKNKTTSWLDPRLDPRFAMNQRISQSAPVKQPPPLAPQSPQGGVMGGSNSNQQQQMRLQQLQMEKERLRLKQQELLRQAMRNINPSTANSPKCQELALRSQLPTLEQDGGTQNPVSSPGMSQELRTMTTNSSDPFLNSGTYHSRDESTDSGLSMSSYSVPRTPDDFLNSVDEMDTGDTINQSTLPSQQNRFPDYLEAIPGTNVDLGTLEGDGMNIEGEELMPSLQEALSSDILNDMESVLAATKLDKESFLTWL
UniProt P46938: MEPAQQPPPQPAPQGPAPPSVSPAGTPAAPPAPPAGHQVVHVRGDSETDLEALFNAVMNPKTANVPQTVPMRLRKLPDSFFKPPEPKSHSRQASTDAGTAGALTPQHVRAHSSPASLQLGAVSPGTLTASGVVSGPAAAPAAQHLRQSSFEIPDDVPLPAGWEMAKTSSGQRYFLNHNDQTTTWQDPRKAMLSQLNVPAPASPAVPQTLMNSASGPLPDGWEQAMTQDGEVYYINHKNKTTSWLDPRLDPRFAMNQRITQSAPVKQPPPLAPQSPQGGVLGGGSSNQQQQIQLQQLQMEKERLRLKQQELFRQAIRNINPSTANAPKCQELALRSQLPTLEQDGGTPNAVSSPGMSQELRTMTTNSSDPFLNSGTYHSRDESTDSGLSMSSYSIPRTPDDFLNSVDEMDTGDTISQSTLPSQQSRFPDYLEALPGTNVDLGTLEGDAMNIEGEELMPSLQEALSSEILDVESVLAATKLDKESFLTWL

B1: endogenous LATS1 (TM4 cells) (protein, UniProt Q8BYR2 1-1129)
chain: MKRGEKPEGYRQMRPKTFPASNYPGSSRQMLQEIRESLRNLSKPSDASKAEHNLNKMSTEDPRQVRNPPKFGTHHKALQEIRNSLLPFANETSSSRSPSEVNPQMFQDLQAAGFDEDMVIQALQKTNNRSIEAAVEFISKMSYQDPRREQMSAAAARPINATMKPGNVQHSINRKQSWKGSKESLVPQRHGPSLGENVVYRSESPNSQADVGRPLSGSGIAAFAQAHPSNGQRVNPPPPPQVRSVTPPPPPRGQTPPPRGTTPPPPSWEPSSQTKRYSGNMEYVISRISPVPPGAWQEGYPPPPLTTSPMNPPSQAQRAISSVPVGRQPIIMQSTSKFNFTPGRPGVQNGGGQSDFIVHQNVPTGSVTRQPPPPYPLTPANGQSPSALQTGASAAPPSFANGNVPQSMMVPNRNSHNMELYNINVPGLQTAWPQSSSAPAQSSPSGGHEIPTWQPNIPVRSNSFNNPLGSRASHSANSQPSATTVTAITPAPIQQPVKSMRVLKPELQTALAPTHPSWMPQPVQTVQPTPFSEGTASSVPVIPPVAEAPSYQGPPPPYPKHLLHQNPSVPPYESVSKPCKDEQPSLPKEDDSEKSADSGDSGDKEKKQITTSPITVRKNKKDEERRESRIQSYSPQAFKFFMEQHVENVLKSHQQRLHRKKQLENEMMRVGLSQDAQDQMRKMLCQKESNYIRLKRAKMDKSMFVKIKTLGIGAFGEVCLARKVDTKALYATKTLRKKDVLLRNQVAHVKAERDILAEADNEWVVRLYYSFQDKDNLYFVMDYIPGGDMMSLLIRMGIFPENLARFYIAELTCAVESVHKMGFIHRDIKPDNILIDRDGHIKLTDFGLCTGFRWTHDSKYYQSGDHPRQDSMDFSNEWGDPSNCRCGDRLKPLERRAARQHQRCLAHSLVGTPNYIAPEVLLRTGYTQLCDWWSVGVILFEMLVGQPPFLAQTPLETQMKVINWQTSLHIPPQAKLSPEASDLIIKLCRGPEDRLGKNGADEIKAHPFFKTIDFSSDLRQQSASYIPKITHPTDTSNFDPVDPDKLWSDGSEEENISDTLNGWYKNGKHPEHAFYEFTFRRFFDDNGYPYNYPKPIEYEYIHSQGSEQQSDEDDQHTSSDGNNRDLVYV

Tests used:
FLAG-YAP = FLAG-YAP (UniProt P46937); test: co-IP; HEK293T transfected with GFP-Kindlin-2 and FLAG-YAP, 48 h; lysates immunoprecipitated with anti-FLAG antibody and protein G-Sepharose
[1] = molecular target: T1, FLAG-LATS1 kinase domain (truncate) (UniProt O95835); test: co-IP; HEK293 co-transfected with GFP-Kindlin-2 and truncates of FLAG-LATS1; lysates immunoprecipitated with anti-FLAG antibody and protein G-Sepharose; blots for GFP and FLAG
T1 sequence: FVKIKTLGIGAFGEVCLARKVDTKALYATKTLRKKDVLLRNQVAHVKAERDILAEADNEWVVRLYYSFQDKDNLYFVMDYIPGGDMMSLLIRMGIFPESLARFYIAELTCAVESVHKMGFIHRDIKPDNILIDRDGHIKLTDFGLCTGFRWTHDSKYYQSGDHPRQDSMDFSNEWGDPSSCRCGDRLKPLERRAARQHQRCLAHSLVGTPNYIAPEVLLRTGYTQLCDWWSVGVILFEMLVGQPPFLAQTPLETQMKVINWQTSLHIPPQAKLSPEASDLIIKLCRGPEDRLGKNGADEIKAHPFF

[2] = molecular target: T2, endogenous LATS1 (HEK293T cells) (human (endogenous in HEK293T)) (UniProt O95835); test: co-IP; endogenous proteins in HEK293T; immunoprecipitation with anti-YAP or anti-LATS1 antibody; blot for Kindlin-2
T2 sequence: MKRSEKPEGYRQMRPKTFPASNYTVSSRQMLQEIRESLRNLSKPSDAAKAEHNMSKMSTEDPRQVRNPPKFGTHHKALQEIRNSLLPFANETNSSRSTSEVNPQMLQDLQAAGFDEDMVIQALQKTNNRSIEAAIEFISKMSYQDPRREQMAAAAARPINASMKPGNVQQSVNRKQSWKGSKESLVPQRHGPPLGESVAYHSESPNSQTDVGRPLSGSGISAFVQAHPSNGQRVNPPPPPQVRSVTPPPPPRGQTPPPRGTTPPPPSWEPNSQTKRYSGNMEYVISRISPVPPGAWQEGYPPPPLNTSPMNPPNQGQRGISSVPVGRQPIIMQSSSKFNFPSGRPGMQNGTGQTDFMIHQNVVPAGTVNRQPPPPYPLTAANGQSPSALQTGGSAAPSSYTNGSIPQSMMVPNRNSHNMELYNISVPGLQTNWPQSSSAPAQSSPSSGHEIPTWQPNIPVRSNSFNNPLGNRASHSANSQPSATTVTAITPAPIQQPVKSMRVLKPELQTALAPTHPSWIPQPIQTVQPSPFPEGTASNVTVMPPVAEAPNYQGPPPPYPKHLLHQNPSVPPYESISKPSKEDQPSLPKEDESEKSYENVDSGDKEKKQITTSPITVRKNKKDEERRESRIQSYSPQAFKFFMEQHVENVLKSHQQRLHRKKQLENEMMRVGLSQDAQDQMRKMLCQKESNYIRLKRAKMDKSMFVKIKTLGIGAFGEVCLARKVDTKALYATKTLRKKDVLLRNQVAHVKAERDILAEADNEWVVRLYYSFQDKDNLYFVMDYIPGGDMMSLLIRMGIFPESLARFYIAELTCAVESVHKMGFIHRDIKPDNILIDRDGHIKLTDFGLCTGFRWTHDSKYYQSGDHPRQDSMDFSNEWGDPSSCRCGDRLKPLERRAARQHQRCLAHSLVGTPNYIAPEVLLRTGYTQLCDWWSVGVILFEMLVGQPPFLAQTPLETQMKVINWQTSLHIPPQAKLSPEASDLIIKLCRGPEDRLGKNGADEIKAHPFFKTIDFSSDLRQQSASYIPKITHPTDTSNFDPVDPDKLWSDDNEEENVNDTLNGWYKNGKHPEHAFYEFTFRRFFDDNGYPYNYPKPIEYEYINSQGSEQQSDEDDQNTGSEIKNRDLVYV

[3] = molecular target: endogenous YAP (HEK293T cells) (human (endogenous in HEK293T)) (UniProt P46937); test: as above
[4] = molecular target: T3, endogenous Kindlin-2 (TM4 cells) (mouse (endogenous in TM4)) (UniProt Q8CIB5); test: co-IP; endogenous proteins; untreated TM4 lysate (RIPA buffer) immunoprecipitated with IgG or anti-Kindlin-2 antibody; blots for YAP, LATS1, Kindlin-2
T3 sequence: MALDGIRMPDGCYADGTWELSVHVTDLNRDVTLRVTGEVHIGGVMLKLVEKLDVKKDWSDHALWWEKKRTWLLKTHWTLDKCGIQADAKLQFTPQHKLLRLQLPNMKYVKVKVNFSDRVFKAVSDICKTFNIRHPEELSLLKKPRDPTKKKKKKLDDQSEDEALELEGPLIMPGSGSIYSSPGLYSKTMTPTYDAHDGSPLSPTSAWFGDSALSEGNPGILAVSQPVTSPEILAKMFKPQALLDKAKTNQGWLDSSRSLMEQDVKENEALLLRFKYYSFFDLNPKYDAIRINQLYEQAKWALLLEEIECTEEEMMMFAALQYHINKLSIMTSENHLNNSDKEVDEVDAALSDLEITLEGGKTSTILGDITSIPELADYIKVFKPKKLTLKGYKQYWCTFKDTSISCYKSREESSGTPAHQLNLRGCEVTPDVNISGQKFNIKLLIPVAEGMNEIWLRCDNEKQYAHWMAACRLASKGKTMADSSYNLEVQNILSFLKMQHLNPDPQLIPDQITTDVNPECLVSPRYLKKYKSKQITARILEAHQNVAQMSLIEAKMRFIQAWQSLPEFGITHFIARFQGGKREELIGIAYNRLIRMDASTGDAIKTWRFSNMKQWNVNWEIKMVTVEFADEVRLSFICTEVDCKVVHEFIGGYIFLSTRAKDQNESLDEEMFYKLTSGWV

FLAG-Kindlin-2 = FLAG-Kindlin-2 (UniProt Q96AC1); test: co-IP; TM4 cells transfected with FLAG or FLAG-Kindlin-2, 48 h; lysates immunoprecipitated with anti-FLAG antibody and protein G-Sepharose; blots for endogenous YAP and LATS1

| Molecule | binding [4] | binding (FLAG-Kindlin-2) | further results |
| --- | --- | --- | --- |
| GFP-Kindlin-2 (full-length) (from UniProt Q96AC1 1-680) |  |  | binding (FLAG-YAP): binds; binding [1]: binds |
| endogenous Kindlin-2 (HEK293T cells) (from UniProt Q96AC1 1-680) |  |  | binding [2]: binds; binding [3]: binds |
| endogenous YAP (TM4 cells) (from UniProt P46938 1-488) | binds | binds |  |
| B1 | binds | binds |  |
